Results are given in words; binding and its absence hold for the method and conditions named. In cells and extracts the contact can be indirect. Some binding calls cover weakened binding; strength is not graded here.
T1: lamin B1 (human (endogenous in Jurkat)), P20700
T1 chain: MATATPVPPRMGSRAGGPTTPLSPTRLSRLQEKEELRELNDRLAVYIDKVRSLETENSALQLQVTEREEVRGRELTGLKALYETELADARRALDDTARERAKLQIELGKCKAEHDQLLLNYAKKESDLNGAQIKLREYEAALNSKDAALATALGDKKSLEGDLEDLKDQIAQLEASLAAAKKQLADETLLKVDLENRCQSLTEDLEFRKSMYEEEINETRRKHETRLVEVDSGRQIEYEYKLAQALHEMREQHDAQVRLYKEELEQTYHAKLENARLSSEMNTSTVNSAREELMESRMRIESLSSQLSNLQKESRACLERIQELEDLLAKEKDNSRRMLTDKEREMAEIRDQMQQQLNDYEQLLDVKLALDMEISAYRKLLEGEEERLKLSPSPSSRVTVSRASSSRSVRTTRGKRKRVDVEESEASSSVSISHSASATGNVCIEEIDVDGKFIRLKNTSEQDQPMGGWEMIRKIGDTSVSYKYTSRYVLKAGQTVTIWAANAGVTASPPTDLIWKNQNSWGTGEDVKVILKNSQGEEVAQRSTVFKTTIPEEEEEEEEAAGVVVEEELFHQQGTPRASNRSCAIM

Amino acid sequences for entries named in this document (tags omitted).
UniProt Q96KQ7: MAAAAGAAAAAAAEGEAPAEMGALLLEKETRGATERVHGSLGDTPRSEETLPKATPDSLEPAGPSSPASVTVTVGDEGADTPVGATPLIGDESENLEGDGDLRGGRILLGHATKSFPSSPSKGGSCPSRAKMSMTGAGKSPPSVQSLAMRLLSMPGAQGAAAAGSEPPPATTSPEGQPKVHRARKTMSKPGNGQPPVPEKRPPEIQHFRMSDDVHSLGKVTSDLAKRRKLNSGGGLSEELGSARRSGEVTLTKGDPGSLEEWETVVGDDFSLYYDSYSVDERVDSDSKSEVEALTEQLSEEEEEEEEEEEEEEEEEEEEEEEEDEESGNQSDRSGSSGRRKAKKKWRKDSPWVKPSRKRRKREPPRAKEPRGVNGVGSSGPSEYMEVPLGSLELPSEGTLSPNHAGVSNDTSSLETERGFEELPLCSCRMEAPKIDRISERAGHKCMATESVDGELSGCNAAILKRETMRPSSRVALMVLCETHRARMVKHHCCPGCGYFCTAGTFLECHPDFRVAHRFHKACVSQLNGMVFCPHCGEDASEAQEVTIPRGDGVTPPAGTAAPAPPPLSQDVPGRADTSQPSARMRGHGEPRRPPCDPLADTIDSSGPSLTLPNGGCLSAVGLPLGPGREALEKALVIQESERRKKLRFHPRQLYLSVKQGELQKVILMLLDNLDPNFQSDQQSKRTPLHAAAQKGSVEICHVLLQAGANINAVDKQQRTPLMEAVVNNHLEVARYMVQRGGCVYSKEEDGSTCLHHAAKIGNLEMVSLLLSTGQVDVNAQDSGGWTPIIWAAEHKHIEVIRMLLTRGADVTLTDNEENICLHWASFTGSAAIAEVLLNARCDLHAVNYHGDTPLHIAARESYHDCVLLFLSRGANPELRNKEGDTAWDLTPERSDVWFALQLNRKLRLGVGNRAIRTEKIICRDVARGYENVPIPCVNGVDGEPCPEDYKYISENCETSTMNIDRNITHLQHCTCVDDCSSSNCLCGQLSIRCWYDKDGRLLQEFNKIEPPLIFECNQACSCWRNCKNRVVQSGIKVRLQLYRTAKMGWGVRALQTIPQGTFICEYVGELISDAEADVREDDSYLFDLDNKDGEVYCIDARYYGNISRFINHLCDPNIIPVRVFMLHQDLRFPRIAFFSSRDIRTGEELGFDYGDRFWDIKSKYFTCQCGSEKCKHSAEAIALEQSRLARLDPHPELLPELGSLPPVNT

B1: SUV39H1, O43463 1-412 (enzyme)
chain: MAENLKGCSVCCKSSWNQLQDLCRLAKLSCPALGISKRNLYDFEVEYLCDYKKIREQEYYLVKWRGYPDSESTWEPRQNLKCVRILKQFHKDLERELLRRHHRSKTPRHLDPSLANYLVQKAKQRRALRRWEQELNAKRSHLGRITVENEVDLDGPPRAFVYINEYRVGEGITLNQVAVGCECQDCLWAPTGGCCPGASLHKFAYNDQGQVRLRAGLPIYECNSRCRCGYDCPNRVVQKGIRYDLCIFRTDDGRGWGVRTLEKIRKNSFVMEYVGEIITSEEAERRGQIYDRQGATYLFDLDYVEDVYTVDAAYYGNISHFVNHSCDPNLQVYNVFIDNLDERLPRIAFFATRTIRAGEELTFDYNMQVDPVDMESTRMDSNFGLAGLPGSPKKRVRIECKCGTESCRKYLF

Legend:
[1] = target: lamin B1 (human (endogenous in Jurkat)) (UniProt P20700); test: condition: only cells cultured in suspension (no adhesion to VCAM1); co-IP; complexes precipitated with anti-lamin B1 antibody from lysates of Jurkat cells cultured in suspension for 24 h; probed by Western blotting
[2] = target: lamin B1 (human (endogenous in Jurkat)) (UniProt P20700); test: co-IP; complexes precipitated with anti-lamin B1 antibody from lysates of Jurkat cells cultured on VCAM1 for 24 h; probed by Western blotting
[3] = target: T1, lamin B1 (human (endogenous in …)); test: as above; conditions: remark: other sources report otherwise

| Molecule | binding [1] | binding [2] | binding [3] |
| --- | --- | --- | --- |
| histone methyltransferase G9a (from UniProt Q96KQ7 1-1210) (enzyme) | no binding | binds |  |
| B1 |  |  | no binding |
